Our source for the binding values is publication PMC8129794.

The chains behind the UniProt entries cited, without tags or fusion partners.
UniProt Q93034: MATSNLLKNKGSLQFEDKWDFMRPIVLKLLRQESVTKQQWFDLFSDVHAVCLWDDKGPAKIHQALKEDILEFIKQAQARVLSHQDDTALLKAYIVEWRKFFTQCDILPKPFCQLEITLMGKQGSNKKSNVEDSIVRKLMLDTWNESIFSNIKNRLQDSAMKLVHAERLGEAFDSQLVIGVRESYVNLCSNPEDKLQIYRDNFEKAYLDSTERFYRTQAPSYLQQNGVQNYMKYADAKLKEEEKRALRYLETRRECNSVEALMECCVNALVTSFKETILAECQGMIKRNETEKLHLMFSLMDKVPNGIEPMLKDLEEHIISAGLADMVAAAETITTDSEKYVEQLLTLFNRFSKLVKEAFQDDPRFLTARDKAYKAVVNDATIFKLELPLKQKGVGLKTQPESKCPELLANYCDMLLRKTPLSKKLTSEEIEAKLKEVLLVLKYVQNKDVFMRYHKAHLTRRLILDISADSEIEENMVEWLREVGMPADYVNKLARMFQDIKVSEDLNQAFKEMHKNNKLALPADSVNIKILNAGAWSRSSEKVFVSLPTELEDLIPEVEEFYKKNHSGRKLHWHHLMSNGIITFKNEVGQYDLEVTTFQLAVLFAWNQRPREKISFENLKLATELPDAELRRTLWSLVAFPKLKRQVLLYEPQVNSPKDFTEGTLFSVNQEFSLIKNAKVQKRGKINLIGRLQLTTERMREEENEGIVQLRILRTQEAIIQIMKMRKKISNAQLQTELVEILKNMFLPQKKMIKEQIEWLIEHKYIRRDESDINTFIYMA
UniProt Q9UHB6: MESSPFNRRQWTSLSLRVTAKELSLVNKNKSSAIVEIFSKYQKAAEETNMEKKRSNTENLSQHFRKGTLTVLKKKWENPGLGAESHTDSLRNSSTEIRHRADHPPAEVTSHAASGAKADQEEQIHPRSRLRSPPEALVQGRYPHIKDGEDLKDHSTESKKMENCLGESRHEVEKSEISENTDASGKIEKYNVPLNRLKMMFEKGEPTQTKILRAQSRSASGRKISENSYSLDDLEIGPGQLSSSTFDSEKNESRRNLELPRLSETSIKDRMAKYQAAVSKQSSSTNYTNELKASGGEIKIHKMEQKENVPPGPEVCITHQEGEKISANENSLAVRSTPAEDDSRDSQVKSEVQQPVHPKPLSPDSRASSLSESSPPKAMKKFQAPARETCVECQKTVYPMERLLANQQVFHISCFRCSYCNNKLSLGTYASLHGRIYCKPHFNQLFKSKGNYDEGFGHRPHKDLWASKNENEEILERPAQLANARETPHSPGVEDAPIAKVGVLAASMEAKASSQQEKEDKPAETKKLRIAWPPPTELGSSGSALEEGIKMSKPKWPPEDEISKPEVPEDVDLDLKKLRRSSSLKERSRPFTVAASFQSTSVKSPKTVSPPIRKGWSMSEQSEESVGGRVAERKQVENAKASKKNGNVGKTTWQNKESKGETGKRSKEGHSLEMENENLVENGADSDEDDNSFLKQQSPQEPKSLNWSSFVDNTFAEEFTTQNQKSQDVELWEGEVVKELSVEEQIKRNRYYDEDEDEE

Residue numbers refer to the chain shown, from its start. Results are given in words; binding and its absence hold for the method and conditions named. Binding seen in cells or lysates may run through a third protein. Some results given as binding are weak or reduced against the parent protein; the word gives no strength. Sequences can lack the tags named with a protein.

One assay deals with T1, GST-Rab40b (UniProt Q12829).
T1 sequence: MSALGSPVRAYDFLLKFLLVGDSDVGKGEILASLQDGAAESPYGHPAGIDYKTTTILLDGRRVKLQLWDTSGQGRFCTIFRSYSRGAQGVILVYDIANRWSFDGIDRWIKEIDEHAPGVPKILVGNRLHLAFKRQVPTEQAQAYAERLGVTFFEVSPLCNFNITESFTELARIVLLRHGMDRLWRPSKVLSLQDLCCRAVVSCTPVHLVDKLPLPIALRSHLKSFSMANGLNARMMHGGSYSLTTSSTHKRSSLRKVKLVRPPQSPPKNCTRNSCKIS
Description: pull-down; glutathione beads coated with GST or purified GST-Rab40b preloaded with GTPgammaS or GDPbetaS, incubated with control MDA-MB-231 lysate; WB for EPLIN; only the target purified.

The target of another assay is T2, FLAG-Rab40b (UniProt Q12829).
T2 sequence: T1 sequence
Description: co-IP; lysates of FLAG-Rab40b or FLAG-Rab40b-4A cells, with or without GTPgammaS, IgG or anti-FLAG antibody and Protein G beads, 37°C; wash 300 mM NaCl, 0.1% Triton X-100, 0.1% SDS; WB anti-EPLIN.

A further assay has as its target T3, FLAG-Rab40b-4A (UniProt Q12829).
T3 sequence: T1 sequence with L212A, P213A, L214A, P215A
The assay is described as above.

A further assay has as its target GST-Cullin5 (UniProt Q93034). Description: pull-down; glutathione beads coated with GST-Cullin5 or GST, incubated with MDA-MB-231 lysates expressing FLAG-Rab40b (GDP or GTPgammaS) or FLAG-Rab40b-4A; 50 mM Hepes pH 7.4, 150 mM NaCl, 0.1% Triton X-100, 25°C, 1 h; WB anti-FLAG; only the target purified.

For the molecule “EPLIN (epithelial protein lost in neoplasia) (from UniProt Q9UHB6 1-759)”, the binding result is on record as “binds” with GST-Rab40b, “binds weakly” with FLAG-Rab40b and “binds” with FLAG-Rab40b-4A.

B1: FLAG-Rab40b (protein, UniProt Q12829 1-278)
chain: T1 sequence
On to B1, for which the binding result in the assay with GST-Cullin5 was “binds”.
